# This is a noisy data set.
# B1: human tRNA-Pro; a variant is named by its letters at N, in order (parent)
# chain: GGCTCGTTGGTCTAGNGGTATGATTCTCGCTTAGGGTGCGAGAGGTCCCGGGTTCNNATCCCGGACGAGCCC
# Variants of: B1
# Assay: tRNA 3' processing efficiency (processed reads / all reads, maximum-likelihood estimate) (fraction); higher = more efficient 3' processing
# Conditions: HEK293T; construct: no Pol-II promoter ((-)CMV library)
row,Variant,tRNA 3' processing efficiency
1,TTA A14G A20G T59C,0.62
2,GGA T8A A14C G17T,0.62
3,GTA A14C G18A T59G,0.4
4,TGC A14G T53C,0.5
5,GTA A14G A58T T59G,0.17
6,TGG G9A T19G A58T,0.25
7,GGA G15A A20G G50A T59A,0.25
8,GGA G9C T59C,0.25
9,GGC A14T T53A,0.25
10,AGA G9T A14C T19G A58G,0.4
11,GGA A14C A20G A58T,0.25
12,AGA G9A T19C T59A,0.29
13,AGA A14T T54A C55T T59A,0.4
14,GTA A14T A20C T59C,0.5
15,AGT G15C,0.04
16,GGC T19A G34A T53A,0.57
17,CGC T8C A20T,0.43
18,GGC G15T G17A A58T,0.4
19,GCC T8G,0.33
20,GGA T8C A14T T19G,0.4
21,GGA G15C T19A C55T A58C,0.11
22,GGG T8A G9A G17A G18A A20C,0.25
23,GGA T8C T53G A58G T59G,0.17
24,AGA A14T T54A A58T,0.2

# 5 entries from above, as tab-separated lines.
row	Variant	tRNA 3' processing efficiency
20	GGA T8C A14T T19G	0.4
21	GGA G15C T19A C55T A58C	0.11
22	GGG T8A G9A G17A G18A A20C	0.25
23	GGA T8C T53G A58G T59G	0.17
24	AGA A14T T54A A58T	0.2

# (continued)

row,Variant,tRNA 3' processing efficiency
1,AGA G17T A20C T59G,0.2
2,GGA A14C G17C T19G A20T A58G,0.25
3,GGG G9A G15A,0.25
4,GGA A14T T19C A58T T59G,0.4
5,GGA A14C G15T T19A T59C,0.4
6,GGC A14T A20T T53G,0.33
7,GGA T8G A58G T59G,0.4
8,GGA G51A T54A,0.38
9,GCT T27C,0.43
10,ACA T53C A58G T59C,0.5
11,GGA A14C G15C T19A T53A,0.06
12,AGC T19C G40T T59G,0.25
13,CGA C55T A58G T59C,0.2
14,TGA A20T C55T A58T,0.4
15,GTA A14G T19A A20T A23C A58T T59A,0.18
16,TGG A20T A58T,0.62
17,CTA A14T A20T A58T,0.33
18,GGA G9A G15T G18A A20T T59G,0.25
19,GGA A14G T53A T54A,0.16
20,CGT T19A T54A,0.3
21,GCA T19C A58G,0.25
22,GTA A14C G34A,0.4
23,GGT A14C T19A,0.2
24,AGG T8G A14T T19A,0.2

row,Variant,tRNA 3' processing efficiency
1,GGA G18A A58T T59A,0.25
2,AGA T8G A58C,0.2
3,TGA A14G T53A T59G,0.5
4,GGA T8G G15T T59A,0.67
5,GGG C3T T4G G6T A20T,0.25
6,TGA G17T C55T T59C,0.4
7,GGG T8G G15C A20T,0.4
8,GGT G9A A14T A20T,0.5
9,AGA T53G A58G,0.5
10,GGA A14G G17A A58T,0.25
11,TTA A14T A20G A58C,0.57
12,AGA A20G C55T,0.25
13,GGA T8C G15C A58T,0.33
14,GGA G9T G17C G18T A58G,0.5
15,ACA T19G T59G,0.4
16,GTA A14G G15T G18A T19G A58T,0.4
17,GGA G9A T53G T59A,0.57
18,GGT T8C G9T A14C,0.56
19,GGA A14T T19C A58T,0.25
20,GGA A14T T19C A20T A58T,0.17
21,GGA T8G G9A A58T,0.25
22,GGA G9A A14G T19G T59G,0.17
23,GCG T59C,0.56
24,GGA G9A T19G A20C T53G,0.25

row,Variant,tRNA 3' processing efficiency
1,GGG G15A T19G T54A,0.44
2,GGA A14T G15T C55T,0.17
3,GGA A20C T53A T59C,0.1
4,TGA G15T T53G T59A,0.33
5,GTA A14G G15A A20G,0.25
6,GGG A14T T19A A20T,0.5
7,TTA A14C A58G T59G,0.33
8,GGG A14C G15T A58T,0.56
9,AGC A14G G17T,0.25
10,TGC G9T,0.5
11,CGG G15A G17A A20G T53A,0.25
12,AGT T19G,0.43
13,GCC G15C G17T,0.5
14,TGA T54A T59C,0.13
15,GGC T19A T59C,0.4
16,GGA A14T A20C T53G,0.29
17,GGA T8C G9A A14T T59C,0.14
18,GGA A14T T54A T59C,0.25
19,CTA A14C G15C A58G,0.25
20,GGA G17T T19A T54A,0.73
21,CGG A58G,0.5
22,GGC T11A,0.5
23,GGA G9T A20G A58C T59A,0.67
24,GGT T19C A20C T59A,0.2

row,Variant,tRNA 3' processing efficiency
1,GGA T46C C55G,0.09
2,CGA A14T T54G C55T A58C,0.25
3,GGA C55T A58T T59C,0.25
4,CGA T8G T53A,0.27
5,AGA A14C T19A T59A,0.25
6,TGA A14G A20T T53G C55T,0.5
7,TGG G15C C55G,0.5
8,TGA A14T C55G A58G,0.25
9,GGA G15T G17T T53A A58G,0.2
10,GTA A14G G15T A20T T53A T59C,0.73
11,TGC G15T,0.2
12,GTA A14G T19A A20G,0.25
13,GGA T8G G15T A20C T53G,0.25
14,GGA T53C C55T A58C,0.5
15,GGA A20T T53A T59C,0.42
16,TGA A14C G18C A58T,0.25
17,TGA T8C T19G,0.17
18,ACG A14G T19A,0.4
19,TTA A14G A20T,0.11
20,AGT T8C A58G,0.25
21,GGG T8C G9A T19A A58C,0.4
22,GGG G15T G18C T59G,0.13
23,CGG G9A T54A,0.14
24,GGA G9T A20T T53A,0.33

row,Variant,tRNA 3' processing efficiency
1,GGA A14T T19C T53G,0.5
2,ATA A14G T19A A43T T59G,0.2
3,GGG A14T G17C,0.25
4,GGA A20T G38A T59C,0.57
5,GGA T8G A14T T19G A58G T59C,0.2
6,CGA T53A A58T T59C,0.2
7,GGG G9A A20T,0.29
8,GGG G15T G17A T53A,0.2
9,GTA A14G G17C T53G A58G,0.17
10,GGC T8G T53A A58G,0.25
11,TGG A58G,0.33
12,GGA A14G A20T T54A,0.5
13,GGA T8G G17C G18A T53A,0.58
14,GGA T19A A33G,0.25
15,GGA G36T C55T A58T,0.29
16,GGG G15A T54A,0.4
17,GGA A14C G15A G17A T19C T53C,0.4
18,TCG A14T A20T,0.25
19,CGA A14C A20T G22A T53A,0.33
20,TCC G17C,0.25
21,GGA T8A G15T G17T C55A,0.4
22,GCT A14T T19A A20T,0.4
23,TCA T19G A41G T54A,0.4
24,GGA A14T A20T T54A,0.25

row,Variant,tRNA 3' processing efficiency
1,GGA T19G T53A T59G,0.5
2,GGA A33G A58T,0.7
3,GGT G9A A14C G17C,0.62
4,CGT G18T,0.13
5,GGG G15T T59A,0.38
6,GGA G9A G17A A58C,0.33
7,TGG G18A T19C,0.14
8,GGC A14T A58G,0.25
9,CGC A14C,0.57
10,CGG C55A,0.62
11,AGA C55G T59C,0.29
12,AGA G15A T19G A58G T59G,0.73
13,GGA G18A T19C T59C,0.25
14,GGG G18A A20T,0.17
15,GTA A14G G17T A20T T59C,0.4
16,GGA A14T A33G A58T,0.5
17,TGA A58C T59G,0.83
18,GGT A14C A20T,0.43
19,GGA A14C G15C,0.5
20,ATA A14G A58C,0.45
21,GGA A14G G15C C55G,0.5
22,GGA T19C T53G A58T,0.33

# Variants of: B1
# Assay: tRNA 5' processing efficiency (processed reads / all reads, maximum-likelihood estimate) (fraction); higher = more efficient 5' processing
# Conditions: HEK293T; construct: CMV Pol-II promoter ((+)CMV library, decapped)
row,Variant,tRNA 5' processing efficiency
1,GGA G9C T59C,0.17

# — the supplement of paper PMC6445147
